# Results taken from the supplement of paper PMC10849652.
# Protein sequences, listed by entry. Tags and fused reporters are not part of them. Lines headed by an entry give the natural chain unless they say otherwise; changes in a name come on top.
# UniProt Q9BRK3: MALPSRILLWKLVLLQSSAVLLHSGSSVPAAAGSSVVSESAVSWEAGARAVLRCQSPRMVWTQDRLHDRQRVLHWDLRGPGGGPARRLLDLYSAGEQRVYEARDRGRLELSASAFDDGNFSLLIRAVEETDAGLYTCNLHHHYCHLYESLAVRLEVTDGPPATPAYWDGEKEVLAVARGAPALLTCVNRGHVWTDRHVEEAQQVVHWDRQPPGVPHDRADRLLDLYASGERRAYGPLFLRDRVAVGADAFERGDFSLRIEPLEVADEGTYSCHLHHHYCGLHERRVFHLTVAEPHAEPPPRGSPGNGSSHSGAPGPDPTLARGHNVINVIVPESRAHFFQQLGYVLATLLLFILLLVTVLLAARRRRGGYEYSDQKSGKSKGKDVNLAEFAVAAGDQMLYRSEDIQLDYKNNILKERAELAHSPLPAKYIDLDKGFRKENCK
# UniProt P03886, whole entry, looked up: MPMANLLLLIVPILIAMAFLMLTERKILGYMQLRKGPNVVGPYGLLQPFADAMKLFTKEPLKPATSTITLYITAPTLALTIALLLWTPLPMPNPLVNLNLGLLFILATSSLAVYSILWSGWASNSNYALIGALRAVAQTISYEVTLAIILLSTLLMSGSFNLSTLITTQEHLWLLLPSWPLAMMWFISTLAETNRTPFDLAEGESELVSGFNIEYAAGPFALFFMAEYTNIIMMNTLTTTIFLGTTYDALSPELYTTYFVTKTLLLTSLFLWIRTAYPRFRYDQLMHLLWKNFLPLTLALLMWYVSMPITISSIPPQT
# UniProt Q2M296: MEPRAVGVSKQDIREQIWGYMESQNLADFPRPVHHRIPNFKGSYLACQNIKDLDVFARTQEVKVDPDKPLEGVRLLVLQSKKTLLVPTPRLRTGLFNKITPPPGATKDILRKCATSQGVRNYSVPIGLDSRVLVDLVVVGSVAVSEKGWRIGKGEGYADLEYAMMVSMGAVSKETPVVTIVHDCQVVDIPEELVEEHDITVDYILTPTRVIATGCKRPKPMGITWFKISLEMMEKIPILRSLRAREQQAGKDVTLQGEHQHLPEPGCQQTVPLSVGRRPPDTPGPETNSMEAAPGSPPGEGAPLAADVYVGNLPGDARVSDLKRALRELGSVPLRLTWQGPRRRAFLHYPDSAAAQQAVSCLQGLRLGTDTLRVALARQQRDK
# UniProt Q9H6N6: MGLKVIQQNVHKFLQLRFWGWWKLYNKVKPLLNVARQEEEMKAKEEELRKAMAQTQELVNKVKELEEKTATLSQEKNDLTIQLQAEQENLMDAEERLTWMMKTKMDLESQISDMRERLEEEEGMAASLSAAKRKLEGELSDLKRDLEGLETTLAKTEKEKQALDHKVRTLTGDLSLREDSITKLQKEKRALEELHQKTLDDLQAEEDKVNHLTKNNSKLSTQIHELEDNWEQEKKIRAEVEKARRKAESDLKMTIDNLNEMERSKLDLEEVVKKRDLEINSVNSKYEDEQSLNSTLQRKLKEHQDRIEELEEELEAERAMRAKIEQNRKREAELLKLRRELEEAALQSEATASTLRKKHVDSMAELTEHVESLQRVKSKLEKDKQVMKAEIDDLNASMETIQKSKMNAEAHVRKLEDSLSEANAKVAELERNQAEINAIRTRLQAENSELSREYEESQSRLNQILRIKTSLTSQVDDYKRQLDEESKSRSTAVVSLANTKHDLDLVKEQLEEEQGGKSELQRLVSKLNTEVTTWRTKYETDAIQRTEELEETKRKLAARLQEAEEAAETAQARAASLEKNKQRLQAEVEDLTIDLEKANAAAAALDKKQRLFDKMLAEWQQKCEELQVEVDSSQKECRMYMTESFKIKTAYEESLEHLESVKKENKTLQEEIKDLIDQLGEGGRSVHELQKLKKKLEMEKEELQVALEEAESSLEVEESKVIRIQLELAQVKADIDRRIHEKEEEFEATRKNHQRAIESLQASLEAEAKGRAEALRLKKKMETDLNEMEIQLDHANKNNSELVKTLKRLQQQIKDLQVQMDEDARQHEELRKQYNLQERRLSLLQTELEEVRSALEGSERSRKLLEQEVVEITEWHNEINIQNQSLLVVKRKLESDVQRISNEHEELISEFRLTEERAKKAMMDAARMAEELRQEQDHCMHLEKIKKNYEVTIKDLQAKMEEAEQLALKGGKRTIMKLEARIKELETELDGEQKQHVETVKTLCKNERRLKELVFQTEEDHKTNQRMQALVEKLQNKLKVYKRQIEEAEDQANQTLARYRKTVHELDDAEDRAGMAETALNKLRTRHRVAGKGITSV
# UniProt P00414, whole entry, looked up: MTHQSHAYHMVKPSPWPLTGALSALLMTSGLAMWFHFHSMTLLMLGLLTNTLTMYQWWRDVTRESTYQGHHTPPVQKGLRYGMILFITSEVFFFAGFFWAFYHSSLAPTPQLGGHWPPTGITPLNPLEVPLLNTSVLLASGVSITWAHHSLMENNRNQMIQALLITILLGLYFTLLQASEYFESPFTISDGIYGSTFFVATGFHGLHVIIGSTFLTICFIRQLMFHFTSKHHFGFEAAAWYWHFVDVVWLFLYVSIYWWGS
# UniProt Q15746, whole entry, looked up: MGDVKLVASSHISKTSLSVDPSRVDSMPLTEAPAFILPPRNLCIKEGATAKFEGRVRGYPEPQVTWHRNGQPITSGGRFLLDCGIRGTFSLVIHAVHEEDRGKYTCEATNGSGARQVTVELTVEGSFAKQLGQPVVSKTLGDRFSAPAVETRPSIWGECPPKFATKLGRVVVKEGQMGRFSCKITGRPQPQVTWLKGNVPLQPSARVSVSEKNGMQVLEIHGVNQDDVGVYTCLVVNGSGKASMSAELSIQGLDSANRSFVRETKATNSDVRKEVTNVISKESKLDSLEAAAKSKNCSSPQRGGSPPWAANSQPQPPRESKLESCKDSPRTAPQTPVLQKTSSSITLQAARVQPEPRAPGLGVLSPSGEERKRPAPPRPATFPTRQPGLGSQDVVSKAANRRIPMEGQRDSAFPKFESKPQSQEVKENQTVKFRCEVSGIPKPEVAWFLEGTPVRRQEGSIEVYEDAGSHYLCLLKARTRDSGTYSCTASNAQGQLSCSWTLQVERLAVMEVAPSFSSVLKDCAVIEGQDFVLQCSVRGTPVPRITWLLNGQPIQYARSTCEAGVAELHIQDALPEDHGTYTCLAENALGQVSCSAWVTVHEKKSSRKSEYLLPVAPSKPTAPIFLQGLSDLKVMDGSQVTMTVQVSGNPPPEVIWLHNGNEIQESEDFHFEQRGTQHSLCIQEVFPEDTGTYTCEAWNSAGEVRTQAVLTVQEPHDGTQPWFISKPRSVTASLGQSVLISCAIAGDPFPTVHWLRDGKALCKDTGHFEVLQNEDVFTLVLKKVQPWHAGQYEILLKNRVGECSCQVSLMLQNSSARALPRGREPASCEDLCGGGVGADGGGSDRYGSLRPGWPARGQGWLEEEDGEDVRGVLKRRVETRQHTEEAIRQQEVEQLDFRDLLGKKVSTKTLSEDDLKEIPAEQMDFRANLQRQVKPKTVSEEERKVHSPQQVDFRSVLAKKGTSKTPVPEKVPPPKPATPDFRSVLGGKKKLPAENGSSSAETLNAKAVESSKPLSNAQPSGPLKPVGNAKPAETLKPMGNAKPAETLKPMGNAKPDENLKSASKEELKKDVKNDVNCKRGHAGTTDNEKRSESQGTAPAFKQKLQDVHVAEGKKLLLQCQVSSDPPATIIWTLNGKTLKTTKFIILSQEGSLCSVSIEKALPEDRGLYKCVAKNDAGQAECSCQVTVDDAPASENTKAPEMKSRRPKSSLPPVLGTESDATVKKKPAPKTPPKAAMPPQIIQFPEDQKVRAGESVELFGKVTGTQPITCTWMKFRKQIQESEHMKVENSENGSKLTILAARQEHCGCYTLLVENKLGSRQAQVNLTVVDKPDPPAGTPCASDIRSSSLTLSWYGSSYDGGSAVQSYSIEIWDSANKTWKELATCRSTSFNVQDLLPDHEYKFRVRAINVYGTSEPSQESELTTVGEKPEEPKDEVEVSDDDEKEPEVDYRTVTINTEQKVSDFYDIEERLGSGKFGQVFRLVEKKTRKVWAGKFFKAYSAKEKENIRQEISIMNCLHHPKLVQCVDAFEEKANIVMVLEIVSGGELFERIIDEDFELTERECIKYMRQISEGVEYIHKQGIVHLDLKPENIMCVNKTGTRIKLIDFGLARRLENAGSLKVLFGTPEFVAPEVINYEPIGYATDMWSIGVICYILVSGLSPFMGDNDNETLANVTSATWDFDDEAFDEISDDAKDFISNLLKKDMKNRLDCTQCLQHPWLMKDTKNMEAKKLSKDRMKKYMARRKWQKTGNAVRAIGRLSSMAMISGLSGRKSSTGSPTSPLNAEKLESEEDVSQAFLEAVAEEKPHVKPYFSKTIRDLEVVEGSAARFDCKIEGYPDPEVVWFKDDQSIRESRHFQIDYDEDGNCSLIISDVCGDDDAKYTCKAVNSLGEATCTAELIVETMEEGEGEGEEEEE
# UniProt Q9NXD2: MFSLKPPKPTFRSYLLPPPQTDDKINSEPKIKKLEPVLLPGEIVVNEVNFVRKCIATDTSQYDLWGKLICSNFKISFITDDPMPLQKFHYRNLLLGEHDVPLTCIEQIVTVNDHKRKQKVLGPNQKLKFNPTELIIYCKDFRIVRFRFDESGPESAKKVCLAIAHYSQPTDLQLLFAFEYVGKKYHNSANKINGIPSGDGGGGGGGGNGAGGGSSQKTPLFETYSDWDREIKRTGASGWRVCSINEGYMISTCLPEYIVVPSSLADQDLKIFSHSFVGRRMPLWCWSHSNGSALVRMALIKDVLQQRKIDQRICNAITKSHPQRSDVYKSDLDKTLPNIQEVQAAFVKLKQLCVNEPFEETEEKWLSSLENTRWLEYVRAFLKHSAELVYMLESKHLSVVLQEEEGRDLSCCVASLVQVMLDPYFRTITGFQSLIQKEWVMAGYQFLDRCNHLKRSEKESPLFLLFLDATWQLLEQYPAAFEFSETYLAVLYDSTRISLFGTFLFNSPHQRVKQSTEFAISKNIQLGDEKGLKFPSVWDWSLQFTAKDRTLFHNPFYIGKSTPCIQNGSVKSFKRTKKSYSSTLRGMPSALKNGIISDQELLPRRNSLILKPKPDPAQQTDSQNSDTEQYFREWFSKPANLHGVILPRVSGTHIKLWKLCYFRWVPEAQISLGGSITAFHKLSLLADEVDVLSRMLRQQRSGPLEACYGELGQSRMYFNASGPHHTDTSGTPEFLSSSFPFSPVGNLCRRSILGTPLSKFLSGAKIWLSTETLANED
# UniProt Q8NCE2: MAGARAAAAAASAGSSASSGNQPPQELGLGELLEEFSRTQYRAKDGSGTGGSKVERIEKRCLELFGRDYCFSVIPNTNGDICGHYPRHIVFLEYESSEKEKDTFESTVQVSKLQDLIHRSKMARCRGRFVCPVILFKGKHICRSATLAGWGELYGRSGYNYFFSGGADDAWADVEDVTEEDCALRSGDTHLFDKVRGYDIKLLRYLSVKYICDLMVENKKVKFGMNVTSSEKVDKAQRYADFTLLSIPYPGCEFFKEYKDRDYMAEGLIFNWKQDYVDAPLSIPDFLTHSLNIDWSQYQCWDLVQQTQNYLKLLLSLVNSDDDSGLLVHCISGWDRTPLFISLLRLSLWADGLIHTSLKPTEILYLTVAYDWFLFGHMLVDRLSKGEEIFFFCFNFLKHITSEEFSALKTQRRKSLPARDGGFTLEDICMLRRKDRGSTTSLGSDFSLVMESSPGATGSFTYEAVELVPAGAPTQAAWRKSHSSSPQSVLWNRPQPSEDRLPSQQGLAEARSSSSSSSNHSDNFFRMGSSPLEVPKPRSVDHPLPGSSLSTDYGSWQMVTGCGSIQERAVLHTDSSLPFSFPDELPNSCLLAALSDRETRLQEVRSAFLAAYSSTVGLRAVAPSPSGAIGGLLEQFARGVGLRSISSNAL
# UniProt P13640: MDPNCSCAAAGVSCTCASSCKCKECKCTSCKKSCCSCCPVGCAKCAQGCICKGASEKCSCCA
# UniProt Q9H019: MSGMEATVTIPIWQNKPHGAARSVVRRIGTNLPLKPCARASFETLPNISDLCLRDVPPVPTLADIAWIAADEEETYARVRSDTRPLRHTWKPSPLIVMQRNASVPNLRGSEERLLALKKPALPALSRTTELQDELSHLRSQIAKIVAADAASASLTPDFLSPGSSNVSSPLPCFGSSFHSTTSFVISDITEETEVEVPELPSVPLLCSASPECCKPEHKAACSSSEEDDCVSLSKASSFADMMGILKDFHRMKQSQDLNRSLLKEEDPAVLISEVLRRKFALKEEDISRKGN
# UniProt Q7Z6M4: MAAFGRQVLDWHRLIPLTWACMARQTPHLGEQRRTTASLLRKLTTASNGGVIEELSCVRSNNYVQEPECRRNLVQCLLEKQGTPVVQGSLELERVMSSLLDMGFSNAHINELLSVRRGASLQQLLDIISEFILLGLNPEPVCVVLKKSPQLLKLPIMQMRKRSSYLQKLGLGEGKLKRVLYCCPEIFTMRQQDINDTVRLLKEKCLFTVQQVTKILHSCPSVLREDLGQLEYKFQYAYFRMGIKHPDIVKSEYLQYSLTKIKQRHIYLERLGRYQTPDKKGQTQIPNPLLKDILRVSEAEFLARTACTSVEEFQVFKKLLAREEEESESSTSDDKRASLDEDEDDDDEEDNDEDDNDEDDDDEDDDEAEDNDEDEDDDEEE
# Some of the results follow.
# Compound: CC1=NC(=CC=C1)C2=C(N=C(N2)C(C)(C)C)C3=CC4=NC=CN=C4C=C3
# Experiment: log2 fold change, soluble protein after heating vs DMSO (PISA); higher = thermal stabilisation; K562 cells, 10 uM, 30 min; active = over 0.2 and 3.5 SD of the protein, either way, in both replicates (recomputed)
# Outline: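 Values are thermal stability changes relative to control samples and are taken from duplicates. They are stated as log2 fold changes. Before quantification by TMTpro 16plex LC-MS/MS with equalised channel sums, K562 cells at 2×10^6 cells/mL were treated with 10 μM compound for 30 min, heated in aliquots for 3 min across 48°C-58°C, pooled, extracted in PBS with 0.5% NP-40 at 4°C, and centrifuged at 21,000xg for 90 min to give the soluble supernatant.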
row,Target,log2 fold change
1,MXRA8 isoform 2 (UniProt Q9BRK3),inactive: -0.106
2,MT-ND1 (UniProt P03886),inactive: -0.034
3,MTHFSD isoform 3 (UniProt Q2M296),inactive: -0.138
4,MRPS15 (UniProt P82914),inactive: -0.022
5,MTCH2 (UniProt E9PIE4),inactive: 0.036
6,MYO9A isoform 4 (UniProt B2RTY4),inactive: -0.089
7,MYH16 (UniProt Q9H6N6),active: 0.724
8,MT-CO3 (UniProt P00414),inactive: 0.12
9,MRPS14 (UniProt O60783),inactive: -0.063
10,MTHFD1 (UniProt P11586),inactive: 0.042
11,MYLK (UniProt Q15746),inactive: 0.202
12,MRPS18C (UniProt Q9Y3D5),inactive: -0.011
13,MTMR10 (UniProt Q9NXD2),inactive: 0.104
14,MTMR14 (UniProt Q8NCE2),inactive: 0.02
15,MT-CO1 (UniProt P00395),inactive: -0.05
16,MYD88 isoform 6 (UniProt Q99836),inactive: 0.064
17,MT1G (UniProt P13640),inactive: 0.133
18,MTFR1L (UniProt Q9H019),inactive: -0.122
19,MRPS16 (UniProt Q9Y3D3),inactive: 0.132
20,MRPS21 (UniProt P82921),inactive: 0.107
21,MTMR1 (UniProt Q13613),inactive: 0.011
22,MTMR4 (UniProt Q9NYA4),inactive: 0.076
23,MRPS26 (UniProt Q9BYN8),inactive: -0.03
24,MTERF4 (UniProt Q7Z6M4),inactive: -0.004
25,MTO1 isoform 6 (UniProt Q9Y2Z2),inactive: -0.092

# Looked up one by one from the entries so far (two):
row,Target,log2 fold change
5,MTCH2 (UniProt E9PIE4),inactive: 0.036
11,MYLK (UniProt Q15746),inactive: 0.202
